PubChem BioAssay AID686938 – Drosophila RNAi Screening Center | 2013
Screen: 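Fly genes required for calcium entry once internal stores are emptied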 (primary screen). Cell system: Drosophila S2R+ cells. Knock-down reagent: long dsRNA against Drosophila genes, about 0.25 µg dsRNA per well, roughly 10,000 cells. Duration: 5 days of knock-down before the calcium assay. Challenge: thapsigargin (SERCA pump blocker) to empty calcium stores; entry signal taken 4 min after adding it. Measurement: 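Duplicate raw fluo-4 intensities per well from a plate reader, at rest and four minutes after thapsigargin emptied calcium stores; entry-to-rest ratio filled for only some wells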. Reading the numbers: calcium entry signal: higher = stronger calcium signal after store depletion; entry to resting ratio: higher = more calcium entry relative to resting level; resting calcium signal: higher = higher resting calcium signal. Rule for the call: 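Hit if the duplicate-averaged plate z-score for entry over resting signal is under −3; wells with weak total dye signal (Fmax z < −2) or more than 5 off-targets removed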. Calls: active = strongly reduced calcium entry; inactive = no strong reduction.
In all, the deposit lists about 23,000 reagents; this is a random part of those that have a named target and a result. Of all reagents, 75 (0.33%) were called active. 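Raw plate signals without normalisation; calls rest on plate z-scores that were not deposited; ratio present for only 364 wells.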 The numbers tell different reagents against one gene apart. No sequences are given here. The record does not give: the dose of the treatment.

target gene | reagent | calcium entry signal, replicate 1 (fluorescence units) | calcium entry signal, replicate 2 (fluorescence units) | entry to resting ratio | resting calcium signal, replicate 1 (fluorescence units) | resting calcium signal, replicate 2 (fluorescence units) | outcome
CG18327 | 1 | 3.86e7 | 4.06e7 | – | 1.92e7 | 1.80e7 | inactive
PCNA | 1 | 3.13e7 | 2.50e7 | – | 1.72e7 | 1.59e7 | inactive
CG17207 | 1 | 3.90e7 | 4.03e7 | – | 2.02e7 | 1.84e7 | inactive
RhoU | 1 | 3.87e7 | 3.21e7 | – | 1.77e7 | 1.53e7 | inactive
RhoU | 2 | 3.73e7 | 3.61e7 | – | 1.79e7 | 1.75e7 | inactive
RhoU | 3 | 3.64e7 | 5.08e7 | – | 1.81e7 | 2.87e7 | inactive
RhoU | 4 | 2.50e7 | 3.65e7 | – | 1.32e7 | 1.97e7 | inactive
RhoU | 5 | 2.91e7 | 2.81e7 | – | 1.51e7 | 1.11e7 | inactive
ldbr | 1 | 5.94e7 | 4.64e7 | – | 3.67e7 | 1.87e7 | inactive
CG3222 | 1 | 3.07e7 | 4.00e7 | – | 1.52e7 | 1.67e7 | inactive
CG13031 | 1 | 3.86e7 | 5.86e7 | – | 1.89e7 | 2.15e7 | inactive
CG13901 | 1 | 3.58e7 | 3.68e7 | – | 1.88e7 | 1.77e7 | inactive
Tsp42Eg | 1 | 4.23e7 | – | – | 2.12e7 | – | inactive
CG30279 (retired record) | 1 | 3.17e7 | 3.71e7 | – | 1.64e7 | 1.49e7 | inactive
CG10357 | 1 | 3.14e7 | 4.48e7 | – | 1.64e7 | 2.06e7 | inactive
CG17806 | 1 | 4.13e7 | 3.64e7 | – | 2.00e7 | 1.66e7 | inactive
CG17321 | 1 | 3.16e7 | 3.47e7 | – | 1.62e7 | 1.57e7 | inactive
CG13223 | 1 | 2.45e7 | 3.24e7 | – | 1.33e7 | 1.41e7 | inactive
Mrgn1 | 1 | 3.81e7 | 4.11e7 | – | 1.78e7 | 2.03e7 | inactive
CG15343 | 1 | 3.69e7 | 5.66e7 | – | 1.90e7 | 2.51e7 | inactive
Ugt304A1 | 1 | 2.30e7 | 2.38e7 | – | 1.23e7 | 1.28e7 | inactive
CG4854 | 1 | 2.84e7 | 3.19e7 | – | 3.48e7 | 1.40e7 | inactive
RhoGAP102A | 1 | 3.80e7 | 3.78e7 | – | 1.86e7 | 1.56e7 | inactive
RhoGAP102A | 2 | 3.77e7 | 5.63e7 | 2.1 | 1.82e7 | 1.97e7 | inactive
Rbsn-5 | 1 | 5.83e7 | – | – | 3.51e7 | – | inactive
Dnz1 | 1 | 4.50e7 | – | – | 2.14e7 | – | inactive
mor | 1 | 3.86e7 | 6.20e7 | – | 2.36e7 | 6.71e7 | inactive
alphaKap4 | 1 | 1.56e7 | 2.46e7 | – | 7.67e6 | 1.11e7 | inactive
CG4617 | 1 | 4.07e7 | 4.18e7 | – | 1.97e7 | 1.90e7 | inactive
CG8641 | 1 | 3.66e7 | 3.94e7 | – | 1.67e7 | 1.80e7 | inactive
CG15580 | 1 | 4.52e7 | 4.29e7 | – | 2.31e7 | 2.08e7 | inactive
Pgd | 1 | 2.75e7 | 3.60e7 | – | 1.38e7 | 1.76e7 | inactive
Cpr23B | 1 | 2.80e7 | 4.04e7 | – | 1.57e7 | 1.67e7 | inactive
Obp56c | 1 | 5.51e7 | 4.84e7 | – | 2.32e7 | 2.51e7 | inactive
Obp56c | 2 | 3.65e7 | 6.39e7 | – | 1.83e7 | 3.38e7 | inactive
CG8149 | 1 | 3.27e7 | 3.20e7 | – | 1.65e7 | 1.59e7 | inactive
glob2 | 1 | 4.02e7 | 3.08e7 | – | 1.56e7 | 1.31e7 | inactive
Galphai | 1 | 4.39e7 | 3.55e7 | – | 2.83e7 | 1.51e7 | inactive
CG11865 | 1 | 5.11e7 | 3.16e7 | – | 2.15e7 | 1.53e7 | inactive
CG1637 | 1 | 3.63e7 | 3.41e7 | – | 1.82e7 | 1.73e7 | inactive
CG1637 | 2 | 2.23e7 | 3.23e7 | – | 1.09e7 | 1.46e7 | inactive
CG1637 | 3 | 3.80e7 | 5.19e7 | – | 1.94e7 | 2.59e7 | inactive
CG9970 | 1 | 4.23e7 | 4.08e7 | – | 2.09e7 | 1.87e7 | inactive
Dip-B | 1 | 3.13e7 | 3.84e7 | – | 1.38e7 | 1.62e7 | inactive
CG32235 | 1 | 4.46e7 | 2.61e7 | – | 2.15e7 | 1.20e7 | inactive
Rop | 1 | 4.86e7 | 3.84e7 | – | 3.53e7 | 1.83e7 | inactive
scramb1 | 1 | 2.98e7 | 3.48e7 | – | 1.59e7 | 1.65e7 | inactive
scramb1 | 2 | 2.63e7 | 3.58e7 | – | 1.49e7 | 1.65e7 | inactive
scramb1 | 3 | 2.92e7 | 3.48e7 | – | 1.63e7 | 1.53e7 | inactive
bip1 | 1 | 4.41e7 | 3.50e7 | – | 3.13e7 | 1.60e7 | inactive
CG14085 | 1 | 2.79e7 | 5.01e7 | – | 1.36e7 | 2.06e7 | inactive
mirr | 1 | 2.01e7 | 2.53e7 | – | 1.13e7 | 1.17e7 | inactive
COX4 | 1 | 4.77e7 | – | – | 2.66e7 | – | inactive
Irp-1B | 1 | 3.61e7 | 3.40e7 | – | 1.64e7 | 1.70e7 | inactive
Hey | 1 | 3.06e7 | 3.88e7 | – | 1.60e7 | 1.70e7 | inactive
Hey | 2 | 4.72e7 | 2.94e7 | – | 2.37e7 | 1.36e7 | inactive
MFS14 | 1 | 4.34e7 | 3.27e7 | – | 1.93e7 | 1.59e7 | inactive
Ipk2 | 1 | 3.60e7 | 4.42e7 | – | 1.68e7 | 1.94e7 | inactive

3 entries already listed, arranged by “calcium entry signal, replicate 2 (fluorescence units)”, low to high:
target gene | reagent | calcium entry signal, replicate 1 (fluorescence units) | calcium entry signal, replicate 2 (fluorescence units) | entry to resting ratio | resting calcium signal, replicate 1 (fluorescence units) | resting calcium signal, replicate 2 (fluorescence units) | outcome
CG8149 | 1 | 3.27e7 | 3.20e7 | – | 1.65e7 | 1.59e7 | inactive
Obp56c | 1 | 5.51e7 | 4.84e7 | – | 2.32e7 | 2.51e7 | inactive
Obp56c | 2 | 3.65e7 | 6.39e7 | – | 1.83e7 | 3.38e7 | inactive
